Measurements taken from US9701628B2, “12-epi pleuromutilins” (NABRIVA THERAPEUTICS AG, priority 2014, dated 2017).
Some entries share one result that the patent states for a list of compounds.

System: Escherichia coli ATCC25922
Test: MIC by broth microdilution (CLSI) against Escherichia coli ATCC 25922
Format: cell-based
Conditions: Escherichia coli ATCC25922, in vitro
Procedure: The in vitro activity against aerobic bacteria was determined by Broth Microdilution Test according to the Clinical and Laboratory Standards Institute (CLSI, former NCCLS) Document M7-A9 Vol 32, No 2 “Methods for Dilution Antimicrobial Susceptibility Tests for Bacteria that Grow Aerobically; Approved Standard—Ninth Edition (2012)”; and the test against anaerobic bacteria was performed by Agar Dilution Test according to the Clinical and Laboratory Standards Institute (CLSI, former NCCLS), Document, M11-A8, Vol. 32, No. 5: “Methods for Antimicrobial Susceptibility Testing of Anaerobic Bacteria; Approved Standard—Eighth Edition (2012)”. Performance standards and interpretive criteria followed the CLSI Document, M100-S23: “Performance Standards for Antimicrobial Susceptibility Testing; Twenty-Third Informational Supplement” (2013). The in vivo activity was tested by the septicaemia mouse model against Staphylococcus aureus and Escherichia coli.
The antibacterial activity expressed as minimal inhibitory concentration (MIC) was determined according to the approved standard reference recommendations of CLSI (former NCCLS) as described in the description of the application.

Compound: C=C[C@]1(C)C[C@@H](OC(=O)CS[C@@H]2C[C@H]3CC[C@@H](C2)N3C)[C@]2(C)[C@H](C)CC[C@]3(CCC(=O)[C@H]32)[C@@H](C)[C@@H]1O [Retapamulin, retapamulin, reference compound]
- MIC: > 16 µg/mL
